Results from the supplement of paper PMC4604168 (melanoma cell lines).
The other results are listed elsewhere or left out. Many values rest on one well or one pass, so single values are uncertain.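 The apoptosis fraction was the count of cleaved-PARP antibody-stained nuclei relative to all DNA-stained nuclei, imaged in 1,536-well plates. Screening doses were set so most cells survived, and baseline and induced cleaved-PARP levels vary greatly across cell lines.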

Legend:
Assay in all cases: cleaved PARP positive nuclei fraction relative to DMSO control; melanoma cells; higher = more apoptosis
Details in all cases: library dose: low library concentration; 72 h
MZ2-MEL = system: MZ2-MEL
MeWo = system: MeWo
RPMI7951 = system: RPMI7951
RVH-421 = system: RVH-421
SkMel28 = system: SkMel28
SkMel30 = system: SkMel30
SkMel5 = system: SkMel5
UACC257 = system: UACC257
UACC62 = system: UACC62
WM115 = system: WM115
WM1716 = system: WM1716
WM1745 = system: WM1745
WM3526 = system: WM3526
WM3619 = system: WM3619
WM451Lu = system: WM451Lu

| Compound | cleaved PARP positive nuclei fraction (MZ2-MEL) [%] | cleaved PARP positive nuclei fraction (MeWo) [%] | cleaved PARP positive nuclei fraction (RPMI7951) [%] | cleaved PARP positive nuclei fraction (RVH-421) [%] | cleaved PARP positive nuclei fraction (SkMel28) [%] | cleaved PARP positive nuclei fraction (SkMel30) [%] | cleaved PARP positive nuclei fraction (SkMel5) [%] | cleaved PARP positive nuclei fraction (UACC257) [%] | cleaved PARP positive nuclei fraction (UACC62) [%] | cleaved PARP positive nuclei fraction (WM115) [%] | cleaved PARP positive nuclei fraction (WM1716) [%] | cleaved PARP positive nuclei fraction (WM1745) [%] | cleaved PARP positive nuclei fraction (WM3526) [%] | cleaved PARP positive nuclei fraction (WM3619) [%] | cleaved PARP positive nuclei fraction (WM451Lu) [%] |
| --- | --- | --- | --- | --- | --- | --- | --- | --- | --- | --- | --- | --- | --- | --- | --- |
| CCN(CC)CCCCNc1ncc2cc(-c3cc(OC)cc(OC)c3)c(NC(=O)NC(C)(C)C)nc2n1 + O=C(O)C(=O)Nc1sc2c(c1C(=O)O)CCNC2 [TCS401] (first compound 0.1 µM, partner dose 1.66667 µM) | 36.9 | 47.7 | 34.2 | 73.8 | 105 | 40.9 | 190 | 74.7 | 49 | 85.2 | 66.9 | 95.9 | 73.1 | 64.6 | 21.8 |
| O=C(O)c1ccc(-c2c[nH]c3ncc(-c4ccccc4)cc23)cc1C1CCCC1 + CCN(CC)CCCCNc1ncc2cc(-c3cc(OC)cc(OC)c3)c(NC(=O)NC(C)(C)C)nc2n1 [PD173074] (first compound 0.16 µM, partner dose 0.1 µM) | 93.4 | 128 | 74.3 | 47.1 | 115 | 38.8 | 119 | 98.6 | 109 | 96.9 | 164 | 103 | 156 | 83.2 | 64.9 |
| N#Cc1c(O)c2c(-c3ccc(-c4ccccc4O)cc3)csc2[nH]c1=O + Cc1cc([N+](=O)[O-])ccc1NS(=O)(=O)c1cc(Cl)ccc1Cl [FH535] (first compound 2 µM, partner dose 1 µM) | 117 | 169 | 38.7 | 89.5 | 124 | 41 | 62.1 | 130 | 58.5 | 90 | 62.4 | 96.3 | 101 | 83.1 | 57.2 |
| CN(NC(=O)CC(=O)NN(C)C(=S)c1ccccc1)C(=S)c1ccccc1 + COc1cc2ncnc(Nc3ccc(Oc4ccccc4)cc3)c2cc1OC [SrcI1] (first compound 0.006 µM, partner dose 2 µM) | 83.1 | 177 | 77.2 | 89.7 | 178 | 92.1 | 268 | 244 | 112 | 179 | 175 | 195 | 67.2 | 377 | 156 |
| COC(=O)c1sccc1S(=O)(=O)Nc1ccc(Nc2ccccc2)cc1OC + COc1ccc2c(c1)CCC1C2CCC2(C)C(NCCCCCCN3C(=O)C=CC3=O)CCC12 [U73122] (first compound 1 µM, partner dose 0.4 µM) | 127 | 287 | 86.7 | 42.9 | 147 | 54.2 | 254 | 109 | 38.1 | 128 | 58.9 | 110 | 367 | 92.6 | 29.3 |
| Cn1cc(/C=C2\C(=O)Nc3cccnc32)c2ccccc21 + O=c1cc(-c2cccc3c2Sc2ccccc2S3)oc(N2CCOCC2)c1 [KU55933] (first compound 0.4 µM, partner dose 1 µM) | 94.8 | 44.1 | 43.7 | 28.9 | 154 | 16.7 | 42.3 | 103 | 39 | 65.6 | 56.3 | 103 | 32.6 | 88.2 | 548 |
| Oc1cc(-c2nc(-c3ccccc3)[nH]c2-c2ccncc2)ccc1Cl + Cc1cc([N+](=O)[O-])ccc1NS(=O)(=O)c1cc(Cl)ccc1Cl [FH535] (first compound 0.2 µM, partner dose 1 µM) | 105 | 112 | 69.4 | 77.8 | 151 | 59.1 | 78.6 | 99.6 | 220 | 278 | 38.7 | 134 | 44 | 110 | 116 |
| COc1cc2c(Oc3ccc4[nH]c(C)cc4c3F)ncnc2cc1OCCCN1CCCC1 [cediranib] + Oc1nc(-c2ccc(C(F)(F)F)cc2)nc2c1CSCC2 [XAV939] (first compound 0.4 µM, partner dose 2 µM) | 78.9 | 27 | 91.4 | 91.4 | 91.8 | 27.5 | 37.4 | 104 | 39.9 | 55 | 194 | 123 | 64.5 | 78.6 | 108 |
| COc1cc2c(Oc3ccc4[nH]c(C)cc4c3F)ncnc2cc1OCCCN1CCCC1 [cediranib] + Cc1cc([N+](=O)[O-])ccc1NS(=O)(=O)c1cc(Cl)ccc1Cl [FH535] (first compound 0.4 µM, partner dose 1 µM) | 142 | 105 | 87 | 71.8 | 169 | 54.5 | 80.4 | 52.5 | 51.9 | 127 | 140 | 99.6 | 66.9 | 78.8 | 64.7 |
| CCc1ccc(CCOc2ccc(CC3SC(=O)NC3=O)cc2)nc1 (stereo not drawn) [pioglitazone] + O=C(O)C(=O)Nc1sc2c(c1C(=O)O)CCNC2 [TCS401] (first compound 2 µM, partner dose 1.66667 µM) | – | 123 | 41.2 | 47.2 | 136 | 86.2 | 55.4 | 83.7 | 76.3 | 145 | 38 | 127 | 96.2 | 65.6 | 55.7 |
| COc1cc2c(Oc3ccc4[nH]c(C)cc4c3F)ncnc2cc1OCCCN1CCCC1 [cediranib] + c1cc(-c2cnn3cc(-c4ccc(OCCN5CCCCC5)cc4)cnc23)ccn1 [Dorsomorphin] (first compound 0.4 µM, partner dose 0.4 µM) | – | 52.2 | 39.8 | 92.1 | 110 | 201 | 152 | 93.9 | 83.6 | 71.7 | 68.3 | 132 | 227 | 58.3 | 74.6 |
| c1cc(-c2cnn3cc(-c4ccc(OCCN5CCCCC5)cc4)cnc23)ccn1 [Dorsomorphin] + CCCCCCCCCCCC1=C(O)C(=O)C=C(O)C1=O [Embelin] (first compound 0.4 µM, partner dose 1.2 µM) | – | 104 | 153 | 101 | 77.1 | 16.1 | 25.9 | 86.2 | 76.3 | 136 | 35.7 | 111 | 60.7 | 73.6 | 124 |
| N#Cc1c(O)c2c(-c3ccc(-c4ccccc4O)cc3)csc2[nH]c1=O + O=S(=O)(c1ccccc1)N(CC(F)(F)F)c1ccc(C(O)(C(F)(F)F)C(F)(F)F)cc1 [T0901317] (first compound 2 µM, partner dose 1.4 µM) | – | 117 | 172 | 125 | 85.4 | 28.2 | 141 | 214 | 132 | 52 | 96 | 120 | 308 | 105 | 207 |
| COc1ccc2c(c1)CCC1C2CCC2(C)C(NCCCCCCN3C(=O)C=CC3=O)CCC12 (stereo not drawn) + COc1cc(N2CCC(N3CCN(C)CC3)CC2)ccc1Nc1ncc(Cl)c(Nc2ccccc2S(=O)(=O)C(C)C)n1 [NVP-TAE684] (first compound 0.4 µM, partner dose 0.08 µM) | – | 168 | 109 | 67.7 | 88.7 | 112 | 59 | 124 | 195 | 70.7 | 86.6 | 248 | 73.9 | 79.8 | 81 |
| N#Cc1c(O)c2c(-c3ccc(-c4ccccc4O)cc3)csc2[nH]c1=O + COC(=O)c1sccc1S(=O)(=O)Nc1ccc(Nc2ccccc2)cc1OC [GSK0660] (first compound 2 µM, partner dose 1 µM) | – | 110 | 162 | 51.7 | 71.6 | 135 | 28.6 | 79.8 | 246 | 84.6 | 47.7 | 93.4 | 75.1 | 149 | 111 |
| COc1ccc(-c2ccc3c(N4CCOCC4)nc(N4C[C@@H](C)O[C@@H](C)C4)nc3n2)cc1CO + Cn1cc(/C=C2\C(=O)Nc3cccnc32)c2ccccc21 [GW441756] (first compound 0.02 µM, partner dose 0.4 µM) | – | 248 | 243 | 48.3 | 153 | 90.1 | 34.4 | 208 | 47.4 | 101 | 89.6 | 120 | 35.6 | 99 | 142 |
| COc1cc(N2CCC(N3CCN(C)CC3)CC2)ccc1Nc1ncc(Cl)c(Nc2ccccc2S(=O)(=O)C(C)C)n1 + CC(C)CCN1c2nc(Nc3cc(F)c(O)c(F)c3)ncc2N(C)C(=O)C1C [BID1870] (first compound 0.08 µM, partner dose 0.2 µM) | – | 125 | 108 | 59.3 | 178 | 79.3 | 100 | 201 | 122 | 156 | 114 | 175 | 86.5 | 98 | 119 |
| COc1cc2c(Oc3ccc4[nH]c(C)cc4c3F)ncnc2cc1OCCCN1CCCC1 [cediranib] + O=c1cc(-c2cccc3c2Sc2ccccc2S3)oc(N2CCOCC2)c1 [KU55933] (first compound 0.4 µM, partner dose 1 µM) | – | 54 | 77.6 | 67.5 | 83.2 | 170 | 27.7 | 15.8 | 73.1 | 104 | 65.5 | 88.4 | 64.7 | 75.5 | 504 |
| O=C(O)C(=O)Nc1sc2c(c1C(=O)O)CCNC2 + c1cc(-c2cnn3cc(-c4ccc(OCCN5CCCCC5)cc4)cnc23)ccn1 [Dorsomorphin] (first compound 1.66667 µM, partner dose 0.4 µM) | – | 49.2 | 128 | 27.7 | 90.1 | 43.8 | 121 | 111 | 49.2 | 177 | 63.1 | 120 | 38.7 | 52.8 | 297 |
| Cc1cc([N+](=O)[O-])ccc1NS(=O)(=O)c1cc(Cl)ccc1Cl + CC(C)CCN1c2nc(Nc3cc(F)c(O)c(F)c3)ncc2N(C)C(=O)C1C [BID1870] (first compound 1 µM, partner dose 0.2 µM) | – | 66.6 | 74.4 | 61.6 | 169 | 11.4 | 58 | 156 | 74.6 | 232 | 92.7 | 80.4 | 60.1 | 88.2 | 275 |
| COC(=O)c1sccc1S(=O)(=O)Nc1ccc(Nc2ccccc2)cc1OC + Oc1cc(-c2nc(-c3ccccc3)[nH]c2-c2ccncc2)ccc1Cl [L779450] (first compound 1 µM, partner dose 0.2 µM) | – | 116 | 81.9 | 73.6 | 116 | 59.4 | 39.2 | 129 | 452 | 82.6 | 152 | 115 | 90 | 91.8 | 90.9 |

Nothing new here: an excerpt of the list.

| Compound | cleaved PARP positive nuclei fraction (MZ2-MEL) [%] | cleaved PARP positive nuclei fraction (MeWo) [%] | cleaved PARP positive nuclei fraction (RPMI7951) [%] | cleaved PARP positive nuclei fraction (RVH-421) [%] | cleaved PARP positive nuclei fraction (SkMel28) [%] | cleaved PARP positive nuclei fraction (SkMel30) [%] | cleaved PARP positive nuclei fraction (SkMel5) [%] | cleaved PARP positive nuclei fraction (UACC257) [%] | cleaved PARP positive nuclei fraction (UACC62) [%] | cleaved PARP positive nuclei fraction (WM115) [%] | cleaved PARP positive nuclei fraction (WM1716) [%] | cleaved PARP positive nuclei fraction (WM1745) [%] | cleaved PARP positive nuclei fraction (WM3526) [%] | cleaved PARP positive nuclei fraction (WM3619) [%] | cleaved PARP positive nuclei fraction (WM451Lu) [%] |
| --- | --- | --- | --- | --- | --- | --- | --- | --- | --- | --- | --- | --- | --- | --- | --- |
| COc1cc2c(Oc3ccc4[nH]c(C)cc4c3F)ncnc2cc1OCCCN1CCCC1 [cediranib] + c1cc(-c2cnn3cc(-c4ccc(OCCN5CCCCC5)cc4)cnc23)ccn1 [Dorsomorphin] (first compound 0.4 µM, partner dose 0.4 µM) | – | 52.2 | 39.8 | 92.1 | 110 | 201 | 152 | 93.9 | 83.6 | 71.7 | 68.3 | 132 | 227 | 58.3 | 74.6 |
| c1cc(-c2cnn3cc(-c4ccc(OCCN5CCCCC5)cc4)cnc23)ccn1 [Dorsomorphin] + CCCCCCCCCCCC1=C(O)C(=O)C=C(O)C1=O [Embelin] (first compound 0.4 µM, partner dose 1.2 µM) | – | 104 | 153 | 101 | 77.1 | 16.1 | 25.9 | 86.2 | 76.3 | 136 | 35.7 | 111 | 60.7 | 73.6 | 124 |
| N#Cc1c(O)c2c(-c3ccc(-c4ccccc4O)cc3)csc2[nH]c1=O + O=S(=O)(c1ccccc1)N(CC(F)(F)F)c1ccc(C(O)(C(F)(F)F)C(F)(F)F)cc1 [T0901317] (first compound 2 µM, partner dose 1.4 µM) | – | 117 | 172 | 125 | 85.4 | 28.2 | 141 | 214 | 132 | 52 | 96 | 120 | 308 | 105 | 207 |
| COc1ccc2c(c1)CCC1C2CCC2(C)C(NCCCCCCN3C(=O)C=CC3=O)CCC12 (stereo not drawn) + COc1cc(N2CCC(N3CCN(C)CC3)CC2)ccc1Nc1ncc(Cl)c(Nc2ccccc2S(=O)(=O)C(C)C)n1 [NVP-TAE684] (first compound 0.4 µM, partner dose 0.08 µM) | – | 168 | 109 | 67.7 | 88.7 | 112 | 59 | 124 | 195 | 70.7 | 86.6 | 248 | 73.9 | 79.8 | 81 |
